According to patent publication US10233190B2, “IDO inhibitors” (NewLink Genetics Corporation, priority 2011, dated 2019):
The structures given here were assigned with low confidence; some may be wrong.

Sequences of proteins named here, by UniProt entry; tags and fusion partners are left off.
UniProt P14902, whole entry P110S/E119G: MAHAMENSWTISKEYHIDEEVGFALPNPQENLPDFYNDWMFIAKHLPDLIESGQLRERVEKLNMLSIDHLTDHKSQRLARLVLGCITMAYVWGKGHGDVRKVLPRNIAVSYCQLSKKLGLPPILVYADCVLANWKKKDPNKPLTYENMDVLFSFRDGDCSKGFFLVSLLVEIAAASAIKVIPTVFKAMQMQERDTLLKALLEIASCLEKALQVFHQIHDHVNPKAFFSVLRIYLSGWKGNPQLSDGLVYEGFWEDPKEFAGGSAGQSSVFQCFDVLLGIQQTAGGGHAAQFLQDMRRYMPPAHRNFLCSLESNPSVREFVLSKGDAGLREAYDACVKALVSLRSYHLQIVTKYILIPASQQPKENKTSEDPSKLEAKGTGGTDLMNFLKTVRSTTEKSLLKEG

Biological target: purified human IDO protein (Homo sapiens (Human), UniProt P14902, E119G/P110S)
Assay: Enzymatic IDO assay (kynurenine production, absorbance at 480 nm)
Format: biochemical
Conditions: read-out: hIDO IC50; recombinant human IDO, enzymatic activity

With `Cc1coc(C)c1C(O)CC1c2c(F)cccc2-c2cncn21` (stereo not shown) the IC50 was 1 to 10 µM.
